From article doi:10.1101/2022.11.15.516687
No constants are given. Whether binding was seen depends on the method and setting. In cells and extracts the contact can be indirect. Binding calls can cover weak binding; strength is not graded here. Where a sequence is shown, tags or fusion partners need not be part of it.

What was measured:
[1] = biological target: T1, HA-tagged IDOL (UniProt Q8WY64); test: co-IP
T1 sequence: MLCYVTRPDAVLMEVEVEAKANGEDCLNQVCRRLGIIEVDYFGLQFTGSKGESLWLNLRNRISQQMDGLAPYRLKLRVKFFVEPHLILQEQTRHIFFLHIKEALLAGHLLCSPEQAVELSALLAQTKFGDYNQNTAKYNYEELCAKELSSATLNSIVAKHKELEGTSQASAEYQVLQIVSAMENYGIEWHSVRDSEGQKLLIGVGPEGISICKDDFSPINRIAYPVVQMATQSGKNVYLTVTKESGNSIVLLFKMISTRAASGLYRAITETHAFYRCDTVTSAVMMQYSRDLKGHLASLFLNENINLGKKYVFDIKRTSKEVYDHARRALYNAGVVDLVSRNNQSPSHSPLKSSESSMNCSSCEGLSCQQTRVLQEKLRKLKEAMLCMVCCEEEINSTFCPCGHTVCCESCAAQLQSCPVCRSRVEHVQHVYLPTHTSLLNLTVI

[2] = biological target: myc-tagged UL136p33 (human cytomegalovirus (HCMV)); test: co-IP

“myc-tagged UL136p33 (human cytomegalovirus (HCMV))” was tested, and the binding [1] was “binds”.

B1: HA-tagged IDOL (enzyme, UniProt Q8WY64 1-445)
chain: T1 sequence
B1 was tested, and the binding [2] was “binds”.
